Paper PMC3591265
No constants are given. Whether binding was seen depends on the method and setting. Binding seen in cells or lysates may run through a third protein. Here binding means that the protein was enriched with, or labelled near, the bait; the list need not be complete. No binding means not detected with the bait. Where a sequence is shown, tags or fusion partners need not be part of it. Values belong to the molecule of their own block, whether it stands above or below them.

Amino acid sequences for entries named in this document (tags omitted). A change or cut given only in a name is not applied to a line headed by its entry.
UniProt O64937: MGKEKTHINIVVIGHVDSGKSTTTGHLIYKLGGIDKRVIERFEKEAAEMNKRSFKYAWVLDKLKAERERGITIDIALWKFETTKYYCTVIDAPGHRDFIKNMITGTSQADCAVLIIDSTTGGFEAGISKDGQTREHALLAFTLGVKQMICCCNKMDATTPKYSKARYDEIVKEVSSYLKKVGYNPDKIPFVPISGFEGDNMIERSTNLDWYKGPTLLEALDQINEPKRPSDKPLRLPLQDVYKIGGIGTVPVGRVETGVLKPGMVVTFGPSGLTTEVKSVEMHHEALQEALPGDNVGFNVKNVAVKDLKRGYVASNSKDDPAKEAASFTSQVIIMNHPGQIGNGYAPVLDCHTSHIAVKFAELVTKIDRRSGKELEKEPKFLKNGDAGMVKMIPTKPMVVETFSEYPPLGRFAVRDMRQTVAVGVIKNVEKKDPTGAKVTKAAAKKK
UniProt Q69KN0: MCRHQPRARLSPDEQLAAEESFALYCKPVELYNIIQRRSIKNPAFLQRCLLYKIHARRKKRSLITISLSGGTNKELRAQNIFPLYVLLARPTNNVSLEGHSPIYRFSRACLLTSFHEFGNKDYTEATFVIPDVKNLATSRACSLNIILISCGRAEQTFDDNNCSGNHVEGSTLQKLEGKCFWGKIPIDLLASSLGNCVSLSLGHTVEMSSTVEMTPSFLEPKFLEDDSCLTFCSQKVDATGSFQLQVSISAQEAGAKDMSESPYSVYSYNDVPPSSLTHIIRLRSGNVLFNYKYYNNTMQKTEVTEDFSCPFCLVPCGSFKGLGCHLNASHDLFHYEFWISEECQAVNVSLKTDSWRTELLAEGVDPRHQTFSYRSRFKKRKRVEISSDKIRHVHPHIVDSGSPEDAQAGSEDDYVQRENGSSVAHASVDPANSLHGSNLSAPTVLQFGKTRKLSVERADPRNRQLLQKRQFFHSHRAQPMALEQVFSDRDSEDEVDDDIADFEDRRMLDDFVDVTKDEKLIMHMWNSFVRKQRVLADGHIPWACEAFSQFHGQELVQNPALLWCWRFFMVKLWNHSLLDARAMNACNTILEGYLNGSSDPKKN

Target: T1, N-terminal TAP-tagged OsFIE2 (Oryza sativa) (UniProt Q6ZJX0)
T1 sequence: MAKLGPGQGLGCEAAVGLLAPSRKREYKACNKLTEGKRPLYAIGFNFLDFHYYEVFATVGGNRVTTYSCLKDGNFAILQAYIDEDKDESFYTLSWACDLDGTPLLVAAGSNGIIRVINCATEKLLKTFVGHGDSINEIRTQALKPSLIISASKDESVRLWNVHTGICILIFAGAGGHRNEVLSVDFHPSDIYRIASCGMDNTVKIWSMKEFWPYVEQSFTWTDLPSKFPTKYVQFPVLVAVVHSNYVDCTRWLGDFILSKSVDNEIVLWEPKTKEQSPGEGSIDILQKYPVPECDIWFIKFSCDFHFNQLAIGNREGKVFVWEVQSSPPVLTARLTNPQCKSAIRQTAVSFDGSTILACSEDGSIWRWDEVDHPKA
Test: affinity purification with mass spectrometry; tandem affinity purification of N-terminal TAP-tagged OsFIE2 from rice cell suspension culture extract: IgG sepharose 1 h at 4°C, AcTEV elution, calmodulin-agarose 1 h at 4°C, EGTA elution; 150 mM NaCl, 0.1% IGEPAL, pH 8.0; LC-MS/MS of the eluate

binding: no binding
Molecule: elongation factor 1-alpha (from UniProt O64937 1-447)

binding: binds
Molecule: OsEMF2b (from UniProt Q69KN0)

binding: binds
B1: OsSET1 (protein, UniProt Q10MI4 1-895)
chain: MASSSSKASDSSSQRPKRPDQGPSGKDAAGLVALHGKLAQLKRQVQSTRLAAIKERVEANRKALQVHTCALFDVAAAAEVASRGAEGGNALSRGAAEGHRRFVGWDSASGPGERELVHVQEENLVAGTLVLSSSGGSGASHRTVVQLVKLPVVDKIPPYTTWIFLDKNQRMADDQSVGRRRIYYDPIVNEALICSESDDDVPEPEEEKHVFTEGEDQLIWKATQDHGLSREVLNVLCQFVDATPSEIEERSEVLFEKYEKQSQSSYKTDLQLFLDKTMDVALDSFDNLFCRRCLVFDCRLHGCSQNLVFPSEKQPYGHELDENKRPCGDQCYLRRREVYQDTCNDDRNACTTYNMDSRSSSLKVSATILSESEDSNRDEDNIKSTSIVETSRSKITNSEYADKSVTPPPGDASETENVSPDMPLRTLGRRKISKHASKSNDHSPDKRQKIYSSPFPFAMSVLNKQSVPEIGETCPDSIESAVDQLPSLDDPNKKISTKDMCAGSTTNTTENTLRDNNNNLFISNKEHSISHWSALERDLYLKGIEIFGKNSCLIARNLLSGLKTCMEVASYMYNNGAAMAKRPLSGKSILGDFAEAEQGYMEQDLVARTRICRRKGRARKLKYTWKSAGHPTVRKRIGDGKQWYTQYNPCGCQQMCGKDCACVENGTCCEKYCGCSKSCKNRFRGCHCAKSQCRSRQCPCFAASRECDPDVCRNCWVSCGDGSLGEPLARGDGYQCGNMKLLLKQQQRILLGKSDVAGWGAFIKNPVNRNDYLGEYTGELISHREADKRGKIYDRANSSFLFDLNEQYVLDAYRKGDKLKFANHSSNPNCYAKVMLVAGDHRVGIYAKDRIEASEELFYDYRYGPDQAPAWARRPEGSKKDEASVSHHRAHKVAR
